According to US20060194268A1, “Method for measuring spinorphin” (priority 2005, published 2006):
No end group written: not given here.

Assay: Measurement of spinorphin in the synovial fluid from RA and OA patients
Design: species or system human

Substance: LVVYPWT [Spinorphin, Leu-Val-Val-Tyr-Pro-Trp-Thr]
- amount of spinorphin in the synovial fluid (joints of OA patients (n=23)): 10.1 ± 7.1 ng/mL
- amount of spinorphin in the synovial fluid (joints of RA patients (n=20)): 4.2 ± 3.4 ng/mL
